Assay results reported in patent publication US10563263B2, “Genetic polymorphisms associated with statin response and cardiovascular diseases, methods of detection and uses thereof” (CELERA CORPORATION, priority 2010, dated 2020).
The source gives many values for each of these; only a part stands here.

Test system: CVD (CHD or stroke)
Experiment: WOSCOPS: SNP by pravastatin treatment interaction, logistic regression (synergy index), CVD endpoint
Type: in vivo, human
Settings: WOSCOPS
Text: CARE was a secondary prevention trial and WOSCOPS was a primary prevention trial.
The CHD endpoint was defined in the analyses herein of CARE as a composite endpoint of fatal CHD, definite non-fatal MI, or revascularization, and was defined in the analyses herein of WOSCOPS as a composite endpoint of death from CHD, nonfatal MI, or revascularization. In both the CARE and WOSCOPS analyses herein, the CVD endpoint was defined as a composite endpoint of CHD or stroke. […] Revascularization, which can include percutaneous transluminal coronary angioplasty (PTCA), stent placement, and coronary artery bypass graft (CABG), are medical interventions that indicate the presence of CHD.
Cohort and case-only study designs were used to identify SNPs associated with response to statin treatment.
For each SNP, a logistic regression model having treatment status as the dependent variable and SNP as the independent predictor variable was performed, with terms for age, sex and race included in the model as covariates. The anti-log of the regression coefficient corresponding to the SNP is an estimate of the synergy index (SI) (Davis et al., “Imputing gene-treatment interactions when the genotype distribution is unknown using case-only and putative placebo analyses-a new method for the Genetics of Hypertension Associated Treatment (GenHAT) study”, Statistics in Medicine 23: (2004), pages 2413-2427). The SI is a ratio of odds ratios: for example in the CARE and WOSCOPS studies, the SI represents the factor by which the odds-ratio of statin treatment, compared with placebo, among major homozygous individuals is multiplied by in order to obtain the odds-ratio of treatment vs. placebo among heterozygous individuals; and multiplied by a second time to obtain the odds-ratio of treatment vs. placebo in minor homozygous individuals. […] In a randomized clinical trial, genotype and treatment are independent by design.

CC[C@H](C)C(=O)O[C@H]1C[C@H](O)C=C2C=C[C@H](C)[C@H](CC[C@@H](O)C[C@@H](O)CC(=O)O)[C@H]21 [Pravastatin, pravastatin]
OR (rs264126 allele C DOM Imputed): 0.7975
OR (rs264129 allele T DOM Imputed): 0.6113
OR (rs608278, allele A, ADD, Imputed): 0.6427
OR (rs613799, allele C, DOM, Imputed): 1.426
OR (rs644041, allele G, ADD, Imputed): 1.523
OR (rs644041, allele G, DOM, Imputed): 1.58
OR (rs670593, allele A, REC, Imputed): 0.6178
OR (rs687047, allele C, ADD, Imputed): 0.7104
OR (rs688358, allele A, ADD, Imputed): 0.6857
OR (rs710832, allele A, REC, Genotyped): 0.2657
OR (rs712531, allele A, DOM, Imputed): 1.787
OR (rs722927, allele G, ADD, Imputed): 0.4322
OR (rs722927, allele G, DOM, Imputed): 0.433
OR (rs726424, allele G, ADD, Genotyped): 0.7473
OR (rs737542, allele A, REC, Imputed): 3.431
OR (rs742827, allele A, ADD, Imputed): 1.416
OR (rs755117, allele A, DOM, Imputed): 1.758
OR (rs757173, allele G, DOM, Genotyped): 0.683
OR (rs2243860 allele A REC Imputed): 2.063
OR (rs2246564 allele T DOM Imputed): 0.4711
OR (rs2248236 allele C DOM Imputed): 0.6667
OR (rs2250340 allele T DOM Imputed): 0.4723
OR (rs2257192 allele G DOM Imputed): 0.4711
OR (rs2270584 allele A DOM Imputed): 0.5988
OR (rs2270586 allele A DOM Imputed): 0.5858
OR (rs2270589 allele A ADD Imputed): 0.6907
OR (rs2270589 allele A DOM Imputed): 0.4396
OR (rs2296889 allele C DOM Imputed): 1.88
OR (rs2301346 allele C ADD Imputed): 1.627
OR (rs2301346 allele C DOM Imputed): 2.008
OR (rs2327929 allele G REC Imputed): 1.756
OR (rs2357486 allele C REC Imputed): 1.682
OR (rs2373793 allele G DOM Imputed): 1.775
OR (rs2377622 allele T REC Imputed): 0.5046
OR (rs2383903 allele G DOM Imputed): 0.5866
OR (rs2389866 allele C DOM Imputed): 0.6667
OR (rs2389869 allele C DOM Imputed): 0.6667
OR (rs2418541 allele A DOM Imputed): 0.6113
OR (rs2418542 allele A DOM Imputed): 0.6113
OR (rs2418548 allele C DOM Imputed): 0.6382
OR (rs2476976 allele C DOM Imputed): 1.351
OR (rs2483639 allele A DOM Imputed): 0.4711
OR (rs2483640 allele A DOM Imputed): 0.4711
OR (rs2544780 allele T REC Imputed): 1.683
OR (rs2586458 allele T DOM Imputed): 0.4393
OR (rs2593272 allele G ADD Imputed): 0.5962
OR (rs2593273 allele T ADD Imputed): 0.5962
OR (rs2622499 allele G DOM Imputed): 0.6667
OR (rs2656822 allele T ADD Imputed): 0.5962
OR (rs2656823 allele G ADD Imputed): 0.5962
OR (rs2656825 allele T ADD Imputed): 0.558
OR (rs2764766 allele C REC Imputed): 1.776
OR (rs2793101 allele T ADD Imputed): 0.6263
OR (rs2793101 allele T DOM Imputed): 0.5997
OR (rs2795871 allele A ADD Imputed): 0.3627
OR (rs2795886 allele A ADD Imputed): 0.3343
OR (rs2795886 allele A DOM Imputed): 0.3343
OR (rs2870464 allele G DOM Imputed): 1.373
OR (rs2875528 allele T DOM Imputed): 2.42
OR (rs6040636, allele T, ADD, Imputed): 1.429
OR (rs6040638, allele C, ADD, Imputed): 1.429
OR (rs6040644, allele A, ADD, Imputed): 1.429
OR (rs6040667, allele T, ADD, Imputed): 1.419
OR (rs6040668, allele C, ADD, Imputed): 1.419
OR (rs6053005, allele C, DOM, Imputed): 0.3707
OR (rs6054405, allele A, REC, Imputed): 1.796
OR (rs6075186, allele G, DOM, Imputed): 0.6821
OR (rs6111540, allele A, ADD, Imputed): 0.7778
OR (rs6131206, allele C, ADD, Imputed): 1.462
OR (rs6131208, allele T, ADD, Imputed): 1.419
OR (rs6131919, allele G, DOM, Imputed): 0.6821
OR (rs6134243, allele C, ADD, Imputed): 1.429
OR (rs6136020, allele A, DOM, Imputed): 0.6821
OR (rs6464377, allele C, DOM, Imputed): 1.743
OR (rs6474230, allele T, DOM, Imputed): 1.832
OR (rs6476565, allele A, DOM, Imputed): 0.4711
OR (rs6511286, allele T, ADD, Imputed): 1.657
OR (rs6541829, allele C, REC, Genotyped): 3.048
OR (rs6544721, allele G, DOM, Imputed): 1.782
OR (rs6544728, allele T, DOM, Imputed): 1.8
OR (rs6565910, allele G, DOM, Imputed): 0.6325
OR (rs6581985, allele G, REC, Imputed): 2.122
OR (rs6685186, allele T, ADD, Imputed): 1.364
OR (rs6722640, allele T, DOM, Imputed): 0.5778
OR (rs6746170, allele A, DOM, Imputed): 1.811
OR (rs6805139, allele G, DOM, Imputed): 1.64
OR (rs6808571, allele G, ADD, Imputed): 1.439
OR (rs6816479, allele A, REC, Imputed): 2.214
OR (rs6865976, allele C, DOM, Imputed): 0.5474
OR (rs6871041, allele G, DOM, Imputed): 0.6093
OR (rs6908481, allele C, REC, Imputed): 1.848
OR (rs6917224, allele A, ADD, Imputed): 1.351
OR (rs6920677, allele G, DOM, Imputed): 0.5128
OR (rs6994498, allele G, DOM, Imputed): 1.832
OR (rs6998772, allele T, DOM, Imputed): 2.739
OR (rs7022281, allele C, ADD, Imputed): 0.7264
OR (rs7022281, allele C, REC, Imputed): 0.6555
OR (rs7043983, allele T, DOM, Imputed): 0.4711
OR (rs7077799, allele A, DOM, Imputed): 1.355
OR (rs7088947, allele A, ADD, Imputed): 0.3545
OR (rs7089661, allele C, DOM, Imputed): 1.351
OR (rs7102072, allele A, DOM, Imputed): 0.6088
OR (rs7129817, allele T, ADD, Imputed): 0.6903
OR (rs7134262, allele T, REC, Imputed): 1.737
OR (rs7138300, allele C, ADD, Imputed): 0.7632
OR (rs7138300, allele C, DOM, Imputed): 0.5772
OR (rs7295817, allele C, ADD, Imputed): 0.7394
OR (rs7295817, allele C, REC, Imputed): 0.747
OR (rs7297372, allele A, ADD, Imputed): 0.7506
OR (rs7298255, allele A, ADD, Imputed): 0.7489
OR (rs7298255, allele A, DOM, Imputed): 0.571
OR (rs7305832, allele C, REC, Imputed): 1.737
OR (rs7446891, allele G, DOM, Imputed): 0.5964
OR (rs7448641, allele C, ADD, Imputed): 0.235
OR (rs7448641, allele C, DOM, Imputed): 0.235
OR (rs7460605, allele G, DOM, Imputed): 1.533
OR (rs7468898, allele T, ADD, Imputed): 1.539
OR (rs7501186, allele A, DOM, Imputed): 1.277
